The list shows a part of the results. Single values are uncertain, as repeats are few or missing.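 The apoptosis fraction was the count of cleaved-PARP antibody-stained nuclei relative to all DNA-stained nuclei, imaged in 1,536-well plates. Screening doses were set so most cells survived, and baseline and induced cleaved-PARP levels vary greatly across cell lines.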
Key:
Assay in all cases: cleaved PARP positive nuclei fraction relative to DMSO control; melanoma cells; higher = more apoptosis
Details in all cases: library dose: low library concentration; 72 h
[1] = test system: COLO792
[2] = test system: COLO800
[3] = test system: COLO829
[4] = test system: G361
[5] = test system: IPC-298
[6] = test system: IST-MEL1
[7] = test system: LOXIMVI
[8] = test system: MEL-HO
[9] = test system: MeWo
[10] = test system: RPMI7951
[11] = test system: RVH-421
[12] = test system: SkMel28
[13] = test system: SkMel30
[14] = test system: SkMel5
[15] = test system: UACC257
[16] = test system: UACC62
[17] = test system: SkMel2
[18] = test system: LB2518-MEL
[19] = test system: MZ2-MEL

SMILES	cleaved PARP positive nuclei fraction [1] [%]	cleaved PARP positive nuclei fraction [2] [%]	cleaved PARP positive nuclei fraction [3] [%]	cleaved PARP positive nuclei fraction [4] [%]	cleaved PARP positive nuclei fraction [5] [%]	cleaved PARP positive nuclei fraction [6] [%]	cleaved PARP positive nuclei fraction [7] [%]	cleaved PARP positive nuclei fraction [8] [%]	cleaved PARP positive nuclei fraction [9] [%]	cleaved PARP positive nuclei fraction [10] [%]	cleaved PARP positive nuclei fraction [11] [%]	cleaved PARP positive nuclei fraction [12] [%]	cleaved PARP positive nuclei fraction [13] [%]	cleaved PARP positive nuclei fraction [14] [%]	cleaved PARP positive nuclei fraction [15] [%]	cleaved PARP positive nuclei fraction [16] [%]	cleaved PARP positive nuclei fraction [17] [%]	cleaved PARP positive nuclei fraction [18] [%]	cleaved PARP positive nuclei fraction [19] [%]
O=c1[nH]nc(Sc2ncc([N+](=O)[O-])s2)n1-c1ccc2c(c1)OCCO2 + C=CCn1c(=O)c2cnc(Nc3ccc(N4CCN(C)CC4)cc3)nc2n1-c1cccc(C(C)(C)O)n1 [MK1775] (first compound 0.2 µM, partner dose 0.02 µM)	81.5	87	70.6	145	139	99	50.9	64.7	104	165	138	30.7	74.7	40	122	44.5	–	–	–
O=C(Nc1cc(C(F)(F)F)cc(C(F)(F)F)c1)c1cc(Cl)ccc1O + CCCCCCCCCCCC1=C(O)C(=O)C=C(O)C1=O [Embelin] (first compound 0.016 µM, partner dose 1.2 µM)	123	132	61.9	153	93.2	34.4	83.6	–	40.7	66.1	84.9	35.8	174	159	267	107	–	–	–
COc1cc([C@@H]2c3cc4c(cc3[C@@H](O[C@@H]3O[C@@H]5CO[C@@H](C)O[C@H]5[C@H](O)[C@H]3O)[C@H]3COC(=O)[C@H]23)OCO4)cc(OC)c1O [etoposide] + COC(=O)c1sccc1S(=O)(=O)Nc1ccc(Nc2ccccc2)cc1OC [GSK0660] (first compound 0.02 µM, partner dose 1 µM)	90.6	135	78.5	112	64.5	137	124	–	91.9	60.9	69.7	110	51.4	78.2	193	–	61.1	–	–
Cc1cn(-c2cc(NC(=O)c3ccc(C)c(Nc4nccc(-c5cccnc5)n4)c3)cc(C(F)(F)F)c2)cn1 [nilotinib] + CCCCCCCCCCCC1=C(O)C(=O)C=C(O)C1=O [Embelin] (first compound 0.2 µM, partner dose 1.2 µM)	38.5	72.7	31.8	79.8	60.5	111	12.7	–	37.8	199	131	40.9	39.7	153	140	29.3	99.5	66.8	85.3
N#CC[C@H](C1CCCC1)n1cc(-c2ncnc3[nH]ccc23)cn1 [ruxolitinib] + OCCn1cc(-c2cnc3nnn(Cc4ccc5ncccc5c4)c3n2)cn1 [PF04217903] (first compound 1 µM, partner dose 1 µM)	181	57.1	102	201	91.2	32.4	157	218	77.4	99.7	33.1	74.3	68.1	129	82.7	185	128	–	–
N#CC[C@H](C1CCCC1)n1cc(-c2ncnc3[nH]ccc23)cn1 [ruxolitinib] + CCN(CC)CCCCNc1ncc2cc(-c3cc(OC)cc(OC)c3)c(NC(=O)NC(C)(C)C)nc2n1 [PD173074] (first compound 1 µM, partner dose 0.1 µM)	247	34.6	158	141	57.7	99.7	61.1	–	57.8	58.2	115	88.7	53.4	320	93.3	85.7	47.7	–	–
Cc1ccc(Nc2nccc(N(C)c3ccc4c(C)n(C)nc4c3)n2)cc1S(N)(=O)=O [Pazopanib] + COc1ccc2c(c1)CCC1C2CCC2(C)C(NCCCCCCN3C(=O)C=CC3=O)CCC12 [U73122] (first compound 0.4 µM, partner dose 0.4 µM)	128	92.8	14.7	120	109	144	43.9	–	116	239	183	90.6	30.3	256	144	155	35.2	120	222
COc1cc([C@@H]2c3cc4c(cc3[C@@H](O[C@@H]3O[C@@H]5CO[C@@H](C)O[C@H]5[C@H](O)[C@H]3O)[C@H]3COC(=O)[C@H]23)OCO4)cc(OC)c1O [etoposide] + NCC(=O)Nc1ccc(-n2nc(C(F)(F)F)cc2-c2ccc3c(ccc4ccccc43)c2)cc1 [OSU03012] (first compound 0.02 µM, partner dose 1 µM)	110	200	–	101	58.6	108	44.9	148	129	88.7	117	73.8	130	143	70.6	130	86.5	101	35.1
O=c1[nH]nc(Sc2ncc([N+](=O)[O-])s2)n1-c1ccc2c(c1)OCCO2 + O=C(O)C(=O)Nc1sc2c(c1C(=O)O)CCNC2 [TCS401] (first compound 0.2 µM, partner dose 1.66667 µM)	52.3	76.2	71.1	246	92.5	96	85.3	–	24.1	113	146	98.9	125	77.7	90.6	98.8	75.5	34.9	79.2
Cc1cc(Nc2cc(N3CCN(C)CC3)nc(Sc3ccc(NC(=O)C4CC4)cc3)n2)n[nH]1 [Tozasertib] + Cc1cc([N+](=O)[O-])ccc1NS(=O)(=O)c1cc(Cl)ccc1Cl [FH535] (first compound 0.006 µM, partner dose 1 µM)	65.6	75.6	99.1	83.4	153	43.8	105	–	115	79.2	112	64.2	46.5	164	38	87.5	132	–	–
Cc1cc(Nc2cc(N3CCN(C)CC3)nc(Sc3ccc(NC(=O)C4CC4)cc3)n2)n[nH]1 [Tozasertib] + COc1ccc2c(c1)CCC1C2CCC2(C)C(NCCCCCCN3C(=O)C=CC3=O)CCC12 [U73122] (first compound 0.006 µM, partner dose 0.4 µM)	115	130	114	81.1	136	86.3	178	–	87.2	92.7	156	24.6	171	71.7	38.4	118	74.3	140	141
CC[C@]1(O)C[C@H]2CN(CCc3c([nH]c4ccccc34)[C@@](C(=O)OC)(c3cc4c(cc3OC)N(C=O)[C@H]3[C@@](O)(C(=O)OC)[C@H](OC(C)=O)[C@]5(CC)C=CCN6CC[C@]43[C@@H]65)C2)C1 [vincristine] + COC(=O)c1sccc1S(=O)(=O)Nc1ccc(Nc2ccccc2)cc1OC [GSK0660] (first compound 0.0001 µM, partner dose 1 µM)	53	83.9	511	58.5	98.4	94.6	87.3	–	230	97.4	137	242	23	97.6	591	344	164	–	–
O=c1[nH]nc(Sc2ncc([N+](=O)[O-])s2)n1-c1ccc2c(c1)OCCO2 + Cc1cc([N+](=O)[O-])ccc1NS(=O)(=O)c1cc(Cl)ccc1Cl [FH535] (first compound 0.2 µM, partner dose 1 µM)	117	31.9	66.7	111	94	97.7	70.8	–	170	67.2	214	100	84.7	157	61	159	–	–	–
Cc1ccc(Nc2nccc(N(C)c3ccc4c(C)n(C)nc4c3)n2)cc1S(N)(=O)=O [Pazopanib] + O=C(O)c1ccc(-c2c[nH]c3ncc(-c4ccccc4)cc23)cc1C1CCCC1 [GSK650394] (first compound 0.4 µM, partner dose 0.16 µM)	102	73.9	26.1	51.7	57.1	55.1	347	133	54.5	161	28.2	68.1	74.6	288	155	87.1	75.6	–	–
Cc1cn(-c2cc(NC(=O)c3ccc(C)c(Nc4nccc(-c5cccnc5)n4)c3)cc(C(F)(F)F)c2)cn1 [nilotinib] + CCc1ccc(CCOc2ccc(CC3SC(=O)NC3=O)cc2)nc1 [pioglitazone] (first compound 0.2 µM, partner dose 2 µM)	170	186	63.6	88.6	45.1	182	111	–	86.6	37.8	151	97.5	22.6	73.6	150	94.2	518	–	–
N#CC[C@H](C1CCCC1)n1cc(-c2ncnc3[nH]ccc23)cn1 [ruxolitinib] + Oc1nc(-c2ccc(C(F)(F)F)cc2)nc2c1CSCC2 [XAV939] (first compound 1 µM, partner dose 2 µM)	–	60.6	21.8	75.4	69.8	108	89.8	–	225	74	219	105	70	175	59.6	54.5	28.2	25.2	49.1
COc1cc([C@@H]2c3cc4c(cc3[C@@H](O[C@@H]3O[C@@H]5CO[C@@H](C)O[C@H]5[C@H](O)[C@H]3O)[C@H]3COC(=O)[C@H]23)OCO4)cc(OC)c1O [etoposide] + CC(C)CCN1c2nc(Nc3cc(F)c(O)c(F)c3)ncc2N(C)C(=O)C1C [BID1870] (first compound 0.02 µM, partner dose 0.2 µM)	69.4	224	139	71.9	66.9	63.3	46.6	–	–	89.5	106	–	96.8	85.6	149	74.5	72.3	77.8	127

Nothing new here: an excerpt of the list.
SMILES	cleaved PARP positive nuclei fraction [1] [%]	cleaved PARP positive nuclei fraction [2] [%]	cleaved PARP positive nuclei fraction [3] [%]	cleaved PARP positive nuclei fraction [4] [%]	cleaved PARP positive nuclei fraction [5] [%]	cleaved PARP positive nuclei fraction [6] [%]	cleaved PARP positive nuclei fraction [7] [%]	cleaved PARP positive nuclei fraction [8] [%]	cleaved PARP positive nuclei fraction [9] [%]	cleaved PARP positive nuclei fraction [10] [%]	cleaved PARP positive nuclei fraction [11] [%]	cleaved PARP positive nuclei fraction [12] [%]	cleaved PARP positive nuclei fraction [13] [%]	cleaved PARP positive nuclei fraction [14] [%]	cleaved PARP positive nuclei fraction [15] [%]	cleaved PARP positive nuclei fraction [16] [%]	cleaved PARP positive nuclei fraction [17] [%]	cleaved PARP positive nuclei fraction [18] [%]	cleaved PARP positive nuclei fraction [19] [%]
N#CC[C@H](C1CCCC1)n1cc(-c2ncnc3[nH]ccc23)cn1 [ruxolitinib] + CCN(CC)CCCCNc1ncc2cc(-c3cc(OC)cc(OC)c3)c(NC(=O)NC(C)(C)C)nc2n1 [PD173074] (first compound 1 µM, partner dose 0.1 µM)	247	34.6	158	141	57.7	99.7	61.1	–	57.8	58.2	115	88.7	53.4	320	93.3	85.7	47.7	–	–
Cc1ccc(Nc2nccc(N(C)c3ccc4c(C)n(C)nc4c3)n2)cc1S(N)(=O)=O [Pazopanib] + COc1ccc2c(c1)CCC1C2CCC2(C)C(NCCCCCCN3C(=O)C=CC3=O)CCC12 [U73122] (first compound 0.4 µM, partner dose 0.4 µM)	128	92.8	14.7	120	109	144	43.9	–	116	239	183	90.6	30.3	256	144	155	35.2	120	222
COc1cc([C@@H]2c3cc4c(cc3[C@@H](O[C@@H]3O[C@@H]5CO[C@@H](C)O[C@H]5[C@H](O)[C@H]3O)[C@H]3COC(=O)[C@H]23)OCO4)cc(OC)c1O [etoposide] + NCC(=O)Nc1ccc(-n2nc(C(F)(F)F)cc2-c2ccc3c(ccc4ccccc43)c2)cc1 [OSU03012] (first compound 0.02 µM, partner dose 1 µM)	110	200	–	101	58.6	108	44.9	148	129	88.7	117	73.8	130	143	70.6	130	86.5	101	35.1
